Consider 30 targets from the supplement of paper PMC10849652.

Amino acid sequences for entries named in this document (tags omitted). A change or cut given only in a name is not applied to a line headed by its entry.
UniProt Q9H6S3: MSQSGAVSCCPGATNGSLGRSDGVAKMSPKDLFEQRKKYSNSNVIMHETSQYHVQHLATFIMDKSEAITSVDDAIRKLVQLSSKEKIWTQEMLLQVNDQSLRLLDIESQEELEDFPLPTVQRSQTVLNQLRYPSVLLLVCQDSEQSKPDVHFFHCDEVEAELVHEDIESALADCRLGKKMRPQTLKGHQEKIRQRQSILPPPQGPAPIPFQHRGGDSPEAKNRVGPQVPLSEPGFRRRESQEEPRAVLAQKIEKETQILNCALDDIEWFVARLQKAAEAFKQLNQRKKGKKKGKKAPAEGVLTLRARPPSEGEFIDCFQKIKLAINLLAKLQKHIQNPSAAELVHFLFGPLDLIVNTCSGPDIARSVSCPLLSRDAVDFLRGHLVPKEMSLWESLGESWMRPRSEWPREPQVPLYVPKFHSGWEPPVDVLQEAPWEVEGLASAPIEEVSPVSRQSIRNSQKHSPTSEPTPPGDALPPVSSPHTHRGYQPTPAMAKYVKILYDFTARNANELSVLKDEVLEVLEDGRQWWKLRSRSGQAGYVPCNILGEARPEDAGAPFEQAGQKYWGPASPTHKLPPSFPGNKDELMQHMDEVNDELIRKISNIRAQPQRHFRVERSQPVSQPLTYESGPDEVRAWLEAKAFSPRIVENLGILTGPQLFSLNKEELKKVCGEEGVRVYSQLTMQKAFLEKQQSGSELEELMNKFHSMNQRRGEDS
UniProt P07814: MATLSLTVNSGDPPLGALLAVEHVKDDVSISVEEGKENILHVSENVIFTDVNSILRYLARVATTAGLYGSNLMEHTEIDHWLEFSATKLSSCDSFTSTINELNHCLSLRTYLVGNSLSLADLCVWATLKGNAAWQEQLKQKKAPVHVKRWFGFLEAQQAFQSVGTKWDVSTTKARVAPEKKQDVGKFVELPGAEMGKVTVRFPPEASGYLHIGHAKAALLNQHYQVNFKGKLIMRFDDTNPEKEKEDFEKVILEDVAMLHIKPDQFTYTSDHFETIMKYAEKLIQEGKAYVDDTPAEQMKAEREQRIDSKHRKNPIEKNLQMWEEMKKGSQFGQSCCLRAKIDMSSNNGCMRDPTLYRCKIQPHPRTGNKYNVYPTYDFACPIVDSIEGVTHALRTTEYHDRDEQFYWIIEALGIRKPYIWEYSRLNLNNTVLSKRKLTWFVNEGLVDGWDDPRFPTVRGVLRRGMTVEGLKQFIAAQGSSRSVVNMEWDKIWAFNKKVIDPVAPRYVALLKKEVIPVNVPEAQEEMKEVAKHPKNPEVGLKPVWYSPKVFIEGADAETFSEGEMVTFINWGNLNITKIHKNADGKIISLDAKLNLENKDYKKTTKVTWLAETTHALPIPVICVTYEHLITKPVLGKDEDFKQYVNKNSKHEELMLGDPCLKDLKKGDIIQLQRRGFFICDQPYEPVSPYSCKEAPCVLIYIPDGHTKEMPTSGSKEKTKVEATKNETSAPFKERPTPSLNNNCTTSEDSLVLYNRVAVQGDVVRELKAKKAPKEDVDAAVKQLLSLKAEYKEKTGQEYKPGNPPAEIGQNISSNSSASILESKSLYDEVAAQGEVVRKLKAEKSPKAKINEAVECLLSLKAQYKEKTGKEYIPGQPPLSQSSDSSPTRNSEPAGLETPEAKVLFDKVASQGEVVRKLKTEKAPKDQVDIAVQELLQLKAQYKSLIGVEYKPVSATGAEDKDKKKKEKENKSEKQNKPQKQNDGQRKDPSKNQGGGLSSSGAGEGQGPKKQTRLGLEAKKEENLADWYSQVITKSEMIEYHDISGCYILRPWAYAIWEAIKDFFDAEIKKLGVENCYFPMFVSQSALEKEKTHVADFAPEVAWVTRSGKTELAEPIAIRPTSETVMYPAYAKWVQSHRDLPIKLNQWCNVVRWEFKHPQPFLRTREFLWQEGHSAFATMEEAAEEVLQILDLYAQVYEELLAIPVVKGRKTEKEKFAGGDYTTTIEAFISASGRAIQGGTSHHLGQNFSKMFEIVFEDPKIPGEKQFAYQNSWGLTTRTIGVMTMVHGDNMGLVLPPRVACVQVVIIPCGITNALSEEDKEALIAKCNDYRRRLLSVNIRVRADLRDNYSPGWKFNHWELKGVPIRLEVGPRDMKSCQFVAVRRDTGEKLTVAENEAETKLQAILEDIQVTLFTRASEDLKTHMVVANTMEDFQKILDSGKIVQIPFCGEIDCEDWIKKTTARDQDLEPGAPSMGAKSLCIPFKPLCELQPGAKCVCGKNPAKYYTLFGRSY
UniProt Q96RQ1: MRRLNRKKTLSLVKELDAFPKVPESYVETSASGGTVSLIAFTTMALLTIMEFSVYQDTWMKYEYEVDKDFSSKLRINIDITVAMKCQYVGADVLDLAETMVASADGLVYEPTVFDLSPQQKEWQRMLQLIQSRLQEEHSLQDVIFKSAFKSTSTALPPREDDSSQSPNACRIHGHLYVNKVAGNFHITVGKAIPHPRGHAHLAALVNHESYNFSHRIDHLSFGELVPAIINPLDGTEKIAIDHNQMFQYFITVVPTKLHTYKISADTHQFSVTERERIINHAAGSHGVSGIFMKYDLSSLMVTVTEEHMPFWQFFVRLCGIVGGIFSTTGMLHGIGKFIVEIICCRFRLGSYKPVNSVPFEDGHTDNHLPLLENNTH
UniProt Q96PL5: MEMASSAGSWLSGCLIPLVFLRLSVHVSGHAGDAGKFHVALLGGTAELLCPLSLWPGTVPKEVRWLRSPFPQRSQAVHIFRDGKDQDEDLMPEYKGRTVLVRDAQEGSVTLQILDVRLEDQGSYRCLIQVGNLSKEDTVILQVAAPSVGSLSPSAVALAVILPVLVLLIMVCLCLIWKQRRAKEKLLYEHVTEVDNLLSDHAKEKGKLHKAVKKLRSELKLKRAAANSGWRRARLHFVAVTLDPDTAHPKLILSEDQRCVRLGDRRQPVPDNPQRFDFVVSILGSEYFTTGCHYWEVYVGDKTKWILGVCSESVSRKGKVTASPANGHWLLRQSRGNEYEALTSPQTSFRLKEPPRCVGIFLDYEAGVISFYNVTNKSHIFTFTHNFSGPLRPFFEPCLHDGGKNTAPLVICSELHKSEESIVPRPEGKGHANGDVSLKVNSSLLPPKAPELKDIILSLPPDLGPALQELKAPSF
UniProt Q9BS26: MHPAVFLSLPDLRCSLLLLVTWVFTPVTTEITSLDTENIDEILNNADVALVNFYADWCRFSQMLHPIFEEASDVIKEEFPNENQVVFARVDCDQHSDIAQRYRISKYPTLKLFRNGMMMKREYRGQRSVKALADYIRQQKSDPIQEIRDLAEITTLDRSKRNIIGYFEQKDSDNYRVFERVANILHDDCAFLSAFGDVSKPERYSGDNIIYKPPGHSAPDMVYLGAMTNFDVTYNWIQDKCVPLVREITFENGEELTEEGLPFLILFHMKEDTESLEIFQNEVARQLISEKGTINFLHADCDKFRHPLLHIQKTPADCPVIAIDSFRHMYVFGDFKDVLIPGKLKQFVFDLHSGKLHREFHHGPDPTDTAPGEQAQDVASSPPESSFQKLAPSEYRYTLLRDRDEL
UniProt Q5BKY9: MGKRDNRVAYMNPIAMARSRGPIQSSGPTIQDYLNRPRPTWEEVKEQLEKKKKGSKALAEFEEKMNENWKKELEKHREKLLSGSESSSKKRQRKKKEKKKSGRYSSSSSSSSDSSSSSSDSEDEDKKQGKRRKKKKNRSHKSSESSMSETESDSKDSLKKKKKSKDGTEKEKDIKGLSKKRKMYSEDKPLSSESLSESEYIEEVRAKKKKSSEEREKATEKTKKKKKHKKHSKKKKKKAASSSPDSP
UniProt Q96EK7: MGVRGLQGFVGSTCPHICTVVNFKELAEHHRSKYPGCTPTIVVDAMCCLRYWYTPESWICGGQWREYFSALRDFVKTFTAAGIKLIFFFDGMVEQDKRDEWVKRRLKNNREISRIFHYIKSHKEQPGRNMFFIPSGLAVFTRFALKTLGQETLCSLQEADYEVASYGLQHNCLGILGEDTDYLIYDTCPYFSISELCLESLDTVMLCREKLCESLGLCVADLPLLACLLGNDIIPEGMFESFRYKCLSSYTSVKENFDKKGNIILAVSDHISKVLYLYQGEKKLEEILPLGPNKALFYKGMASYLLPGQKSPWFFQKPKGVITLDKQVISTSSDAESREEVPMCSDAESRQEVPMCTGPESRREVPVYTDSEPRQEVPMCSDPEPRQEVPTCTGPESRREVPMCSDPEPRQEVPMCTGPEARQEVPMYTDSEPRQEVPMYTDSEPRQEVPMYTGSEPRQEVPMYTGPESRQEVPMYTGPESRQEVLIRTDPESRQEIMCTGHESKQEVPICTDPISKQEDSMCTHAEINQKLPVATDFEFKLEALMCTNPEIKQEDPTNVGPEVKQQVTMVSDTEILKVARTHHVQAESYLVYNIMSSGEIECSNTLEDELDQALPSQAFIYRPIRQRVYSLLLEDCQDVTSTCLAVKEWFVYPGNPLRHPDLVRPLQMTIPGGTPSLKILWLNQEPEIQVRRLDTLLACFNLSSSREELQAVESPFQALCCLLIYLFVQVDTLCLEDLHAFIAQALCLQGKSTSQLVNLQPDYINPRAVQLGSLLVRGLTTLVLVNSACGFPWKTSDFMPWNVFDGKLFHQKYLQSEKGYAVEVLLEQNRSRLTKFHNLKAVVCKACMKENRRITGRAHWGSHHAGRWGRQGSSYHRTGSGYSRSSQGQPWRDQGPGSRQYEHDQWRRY
UniProt P13804: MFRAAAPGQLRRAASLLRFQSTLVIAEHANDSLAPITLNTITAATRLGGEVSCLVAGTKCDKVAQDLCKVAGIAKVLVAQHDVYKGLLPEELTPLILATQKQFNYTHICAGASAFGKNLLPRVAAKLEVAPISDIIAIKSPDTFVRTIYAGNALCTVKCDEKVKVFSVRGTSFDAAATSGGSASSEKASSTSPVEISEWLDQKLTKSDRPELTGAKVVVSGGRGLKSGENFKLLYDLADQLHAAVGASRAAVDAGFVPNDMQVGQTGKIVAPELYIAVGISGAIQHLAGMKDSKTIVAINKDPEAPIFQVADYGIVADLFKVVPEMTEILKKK
UniProt Q9Y2C4: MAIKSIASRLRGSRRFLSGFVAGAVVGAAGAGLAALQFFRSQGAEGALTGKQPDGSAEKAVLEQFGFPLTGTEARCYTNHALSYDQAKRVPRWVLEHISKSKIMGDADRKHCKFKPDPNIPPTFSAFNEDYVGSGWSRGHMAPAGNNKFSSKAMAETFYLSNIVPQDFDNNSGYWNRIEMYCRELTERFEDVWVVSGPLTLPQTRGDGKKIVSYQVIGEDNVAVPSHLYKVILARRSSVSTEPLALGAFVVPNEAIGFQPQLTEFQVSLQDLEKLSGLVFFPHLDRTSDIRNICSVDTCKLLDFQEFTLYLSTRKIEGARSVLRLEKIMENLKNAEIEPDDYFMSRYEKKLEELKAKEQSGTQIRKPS
UniProt P28715: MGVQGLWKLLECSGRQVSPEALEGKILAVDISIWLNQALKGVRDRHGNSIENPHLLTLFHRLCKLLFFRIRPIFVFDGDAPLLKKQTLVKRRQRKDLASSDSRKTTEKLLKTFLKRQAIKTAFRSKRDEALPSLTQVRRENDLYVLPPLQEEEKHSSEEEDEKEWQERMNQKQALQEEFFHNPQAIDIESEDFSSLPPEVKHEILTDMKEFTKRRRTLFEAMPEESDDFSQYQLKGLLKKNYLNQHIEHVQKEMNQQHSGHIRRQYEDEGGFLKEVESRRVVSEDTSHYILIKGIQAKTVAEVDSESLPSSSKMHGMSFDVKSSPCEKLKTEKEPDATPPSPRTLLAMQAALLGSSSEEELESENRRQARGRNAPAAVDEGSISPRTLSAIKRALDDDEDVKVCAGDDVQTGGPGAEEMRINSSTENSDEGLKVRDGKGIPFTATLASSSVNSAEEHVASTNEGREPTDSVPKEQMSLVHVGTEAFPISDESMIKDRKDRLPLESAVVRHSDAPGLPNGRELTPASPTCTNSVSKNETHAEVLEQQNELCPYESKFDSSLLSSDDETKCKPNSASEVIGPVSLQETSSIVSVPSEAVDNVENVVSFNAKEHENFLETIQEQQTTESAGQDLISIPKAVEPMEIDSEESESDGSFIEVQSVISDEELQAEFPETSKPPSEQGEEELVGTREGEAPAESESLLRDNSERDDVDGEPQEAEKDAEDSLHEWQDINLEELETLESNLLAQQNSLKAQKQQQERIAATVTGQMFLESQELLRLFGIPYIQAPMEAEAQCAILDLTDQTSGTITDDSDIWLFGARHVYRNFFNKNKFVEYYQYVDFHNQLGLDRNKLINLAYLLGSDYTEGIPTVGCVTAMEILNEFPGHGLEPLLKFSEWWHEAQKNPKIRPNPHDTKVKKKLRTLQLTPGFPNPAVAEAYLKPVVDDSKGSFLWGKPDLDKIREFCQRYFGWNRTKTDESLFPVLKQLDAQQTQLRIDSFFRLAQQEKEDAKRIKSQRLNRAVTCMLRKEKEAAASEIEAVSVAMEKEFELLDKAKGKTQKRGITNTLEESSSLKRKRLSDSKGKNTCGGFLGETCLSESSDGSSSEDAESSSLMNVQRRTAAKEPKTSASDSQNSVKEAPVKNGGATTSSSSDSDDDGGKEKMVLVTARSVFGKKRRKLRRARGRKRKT

Compound in the experiment: c1cn2cc(-c3ccc4cn[nH]c4c3)nc(Nc3ccc(N4CCOCC4)cc3)c2n1 [entospletinib]
Put plainly: log2 fold change, soluble protein after heating vs DMSO (PISA); higher = thermal stabilisation; K562 cells, 10 uM, 30 min; active = over 0.2 and 3.5 SD of the protein, either way, in both replicates (recomputed). The essentials:
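K562 cells (2×10^6 cells/mL) were treated with 10 μM compound for 30 min, and aliquots were heated for 3 min over 48°C-58°C. Pooled aliquots were extracted in PBS with 0.5% NP-40 at 4°C, and the supernatant after 21,000xg for 90 min was measured by TMTpro 16plex LC-MS/MS with channel sums equalised. Reported thermal stability, relative to control samples and from duplicates, is a log2 fold change.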

Some of the results follow.

For the target ERAL1 (UniProt O75616), the log2 fold change was inactive: 0.081.

As to FAHD1 (UniProt Q6P587), the log2 fold change was inactive: -0.008.

For the target EPS8L2 isoform 3 (UniProt Q9H6S3), the log2 fold change is inactive: 0.034.

Turning to EPRS (UniProt P07814), the log2 fold change was inactive: 0.167.

ERGIC2 (UniProt Q96RQ1): the log2 fold change was inactive: -0.015.

Regarding FAM20B (UniProt O75063), the log2 fold change was inactive: -0.062.

Consider ESYT2 (UniProt H7BXI1), for which the log2 fold change is inactive: 0.03.

Regarding FAH (UniProt P16930), the log2 fold change was inactive: -0.033.

Turning to EPS15 (UniProt P42566), the log2 fold change was inactive: -0.008.

Take ETF1 (UniProt P62495): the log2 fold change is inactive: -0.029.

Turning to FAM162A (UniProt Q96A26), the log2 fold change was inactive: 0.027.

In the case of ETFB (UniProt P38117), the log2 fold change was inactive: 0.054.

On to ERMAP (UniProt Q96PL5), for which the log2 fold change was inactive: -0.036.

For ERP44 (UniProt Q9BS26), the log2 fold change is inactive: 0.01.

ERGIC3 isoform 3 (UniProt Q9Y282): the log2 fold change was inactive: 0.01.

For EPB41L3 (UniProt Q9Y2J2), the log2 fold change was inactive: 0.035.

As for ERGIC1 (UniProt Q969X5), the log2 fold change is inactive: -0.025.

For the target FAM133B (UniProt Q5BKY9), the log2 fold change is inactive: -0.023.

For FAH isoform 2 (UniProt P16930), the log2 fold change was inactive: -0.209.

Consider EPHX1 (UniProt P07099), for which the log2 fold change was inactive: 0.022.

On to FAF1 (UniProt Q9UNN5), for which the log2 fold change was inactive: 0.016.

Take FAM120B (UniProt Q96EK7): the log2 fold change was inactive: -0.046.

In the case of ETFA (UniProt P13804), the log2 fold change is inactive: 0.006.

Take EXOG (UniProt Q9Y2C4): the log2 fold change was inactive: -0.074.

Take EVPL (UniProt Q92817): the log2 fold change is inactive: -0.04.

In the case of ERCC8 (UniProt Q13216), the log2 fold change was inactive: 0.052.

As for EXOSC3 (UniProt Q9NQT5), the log2 fold change is inactive: -0.021.

ERCC5 (UniProt P28715): the log2 fold change is inactive: 0.035.

As for FAM122B isoform 2 (UniProt Q7Z309), the log2 fold change was inactive: 0.074.

With EXOSC5 (UniProt Q9NQT4), the log2 fold change is inactive: -0.03.
